Experimental findings from PubChem BioAssay AID240 (DTP/NCI, 2004) are described below.

Molecules are shown by their SMILES. The list shows only some results of the screen, not a fair sample: it gathers tests that were run many times, whatever their T/C, doses with no T/C, and many T/C values between a quarter and a half above the control. Further doses and runs are listed elsewhere. T/C is the treated group as % of the vehicle group. Some entries give survivors of the animals treated and no T/C: the source holds a T/C of zero for them, seemingly a mark for toxic or unscored doses. Some doses without a T/C left all or most animals alive at the check, yet need not have been tolerated: the source hardly ever lists a survival T/C far under the control, and the zero likely stands for such cases as well. Counts of survivors are from the toxicity check (mostly the fifth day) where no day follows; animals may have died later. Schedules are NCI's codes, taken here to give the interval after Q, in days (D) or hours (H), and the number of doses after X. Some entries were tested several times; the values are given in rising order. Where survival is the endpoint, the PubChem record calls one and a half times the control and up active, and a quarter to a half above the control has no call in these data; cut-offs in other NCI protocols can differ. Brackets with × count equal records among those shown. Some T/C values are followed by the survivors on the day toxicity was checked, most often the fifth; without a count, all were alive then. Starred links: 1 amine or outer side, 2 acyl side, 3 side chain; linkers in the order of their positions; H or OH if unused. Positions of bridges follow the written chain, without caps; N, C: chain ends. Non-standard residues stand in square brackets, D forms with d. Residues, ends and D or L forms follow the SMILES beside them. Chains are numbered I, II in the order given. Actinocin(9to1) = Cc1c2oc3c(C)ccc(C(=O)[*:1])c3nc-2c(C(=O)[*:2])c(N)c1=O; aThr = C[C@H](O)[C@H](N)C(=O)O; NMeV = CN[C@H](C(=O)O)C(C)C; Sar = CNCC(=O)O

In this test the test system is Lymphoma 4 ip in BDF1 mice, median survival. The test is described as follows: NCI In Vivo Anticancer Drug Screen. Data for tumor model Lymphoma 4 (intraperitoneal) in B6D2F1 (BDF1) mice. Conditions: T/C endpoint: median survival time, schedule: Q01DX010 (ip), higher T/C = longer survival. The procedure:
The antitumor activity of compounds was measured in mice bearing transplantable tumors. Survival or tumor size were measured and the results are expressed as the measurement made in the treated group (T) divided by the measurement made in the vehicle treated control group (C). The tumor model used in this assay is Lymphoma 4 (intraperitoneal) in B6D2F1 (BDF1) mice

The mark [1] stands for this setting: dose: 100.0 mg/kg/injection, vehicle: saline.
The mark [2] stands for this setting: dose: 200.0 mg/kg/injection, vehicle: saline.
[3] abbreviates: dose: 32.0 mg/kg/injection, vehicle: saline.
Setting [4] is: dose: 64.0 mg/kg/injection, vehicle: saline.
The mark [5] stands for this setting: dose: 0.5 mg/kg/injection, vehicle: saline.
The mark [6] stands for this setting: dose: 25.0 mg/kg/injection, vehicle: saline.
[7] abbreviates: dose: 50.0 mg/kg/injection, vehicle: saline.
Where [8] appears, read: dose: 1.25 mg/kg/injection, vehicle: saline.
[9] abbreviates: dose: 2.5 mg/kg/injection, vehicle: saline.
Where [10] appears, read: dose: 10.0 mg/kg/injection, vehicle: saline.
The mark [11] stands for this setting: dose: 2.0 mg/kg/injection, vehicle: saline.
The mark [12] stands for this setting: dose: 4.0 mg/kg/injection, vehicle: saline.
The mark [13] stands for this setting: dose: 8.0 mg/kg/injection, vehicle: saline.
Where [14] appears, read: dose: 64.0 mg/kg/injection, vehicle: other.
Setting [15] is: dose: 16.0 mg/kg/injection, vehicle: saline.
[16] abbreviates: dose: 6.0 mg/kg/injection, vehicle: saline.
The mark [17] stands for this setting: dose: 5.0 mg/kg/injection, vehicle: saline.
[18] abbreviates: dose: 20.0 mg/kg/injection, vehicle: saline.
The mark [19] stands for this setting: dose: 6.25 mg/kg/injection, vehicle: saline.
Setting [20] is: dose: 12.5 mg/kg/injection, vehicle: saline.

In the case of `CC(=O)Nc1ccc2nc3ccc(NC(C)=O)cc3[n+](-c3ccccc3)c2c1`, the T/C reads like this: under setting [1], 129 % of control; under setting [2], 129 % of control.
Turning to `Nc1nc(SCc2ccccc2)c2[nH]cnc2n1`, the survivor count is, setting by setting: under setting [3], 6 of 6; under setting [4], 6 of 6.
As for `CC[C@]1(O)C[C@H]2CN(CCc3c([nH]c4ccccc34)[C@@](C(=O)OC)(c3cc4c(cc3OC)N(C=O)[C@H]3[C@@](O)(C(=O)OC)[C@H](OC(C)=O)[C@]5(CC)C=CCN6CC[C@]43[C@@H]65)C2)C1`, the T/C by setting is: (dose: 0.06 mg/kg/injection, vehicle: saline) 135 % of control; (dose: 0.12 mg/kg/injection, vehicle: saline) 128 % of control. For the same compound, the survivor count under setting [5] is recorded as 5 of 6.
For the compound `N=[N+]=CC(=O)OCC(N)C(=O)O` (stereo not drawn), the survivor count under setting [6] is 6 of 6.
Consider `CC(CCC(C)OS(C)(=O)=O)OS(C)(=O)=O` (stereo not drawn), for which the survivor count under setting [3] was 6 of 6.
For `CCN(CC)CCNc1ccc(C)c2sc3ccccc3c(=O)c12`, the survivor count is 6 of 6 under setting [1]; 5 of 6 and 6 of 6 under setting [2].
Take `C1CN1c1nc(N2CC2)nc(N2CC2)n1`: the T/C is, setting by setting: under setting [5], 129 % of control; (dose: 1.0 mg/kg/injection, vehicle: saline) 135 % of control.
Turning to `CS(=O)(=O)OCCC(=O)N1CCN(C(=O)CCOS(C)(=O)=O)CC1`, the T/C is, setting by setting: under setting [6], 129 % of control; under setting [7], 148 % of control.
With `O=C(O)c1[nH]c(=O)[nH]c(=O)c1F`, the T/C was 128 % of control under setting [8]; 126 and 128 % of control under setting [9]. The survivor count under setting [10] is reported as 6 of 6.
As for `Nc1nc(N)c2nc(CNc3ccc(C(=O)NC(CCC(=O)O)C(=O)O)cc3)cnc2n1` (stereo not drawn), the survivor count (dose: 0.4 mg/kg/injection, vehicle: other) was 5 of 6 and 6 of 6.
For the compound `Nc1nc(=S)c2ncn(C3OC(CO)C(O)C3O)c2[nH]1` (stereo not drawn), the survivor count is reported as 6 of 6 under setting [11], 6 of 6 under setting [12] and 5 of 6 under setting [13].
Regarding `O=C(Nc1ccc(C2=NCCN2)cc1)c1ccc(C(=O)Nc2ccc(C3=NCCN3)cc2)cc1`, the T/C (dose: 4.0 mg/kg/injection, vehicle: other) is 123, 125, 132, 150 % of control; the T/C (dose: 8.0 mg/kg/injection, vehicle: other) was 123, 159, 168, 205 % of control; the T/C (dose: 16.0 mg/kg/injection, vehicle: other) is reported as 123, 128, 150, 162 % of control; the T/C (dose: 32.0 mg/kg/injection, vehicle: other) is 109, 113, 129, 140 % of control; the T/C under setting [14] is 112, 131, 138 % of control. Besides, under setting [14], the survivor count is on record as 4 of 6.
With `O=C(Nc1ccc(NC2=NCCN2)cc1)c1ccc(C(=O)Nc2ccc(NC3=NCCN3)cc2)cc1`, the T/C is, setting by setting: under setting [12], 126 and 139 % of control; under setting [13], 143 % of control. The survivor count under setting [15] is given as 6 of 6.
Turning to `Cc1c2oc3c(C)ccc(C(=O)N[C@@H]4C(=O)N[C@H](C(C)C)C(=O)N5CCC[C@H]5C(=O)N(C)CC(=O)N(C)[C@@H](C(C)C)C(=O)O[C@H]4C)c3nc-2c(C(=O)N[C@@H]2C(=O)N[C@H](C(C)C)C(=O)N3CCC[C@H]3C(=O)N(C)CC(=O)N(C)[C@@H](C(C)C)C(=O)O[C@H]2C)c(N)c1=O` (I: [aThr][dV]P[Sar][NMeV] / II: [aThr][dV]P[Sar][NMeV]; ester I:1-I:C, II:1-II:C; linker I:N-II:N via Actinocin(9to1)), under “dose: 25.0 micrograms/kg/injection, vehicle: other”, the T/C is 141 % of control. The survivor count (dose: 100.0 micrograms/kg/injection, vehicle: other) is on record as 6 of 6.
For the compound `O=C(Nc1ccc(C2=NCCN2)cc1)c1ccc(C(=O)Nc2ccc(C3=NCCN3)cc2)c([N+](=O)[O-])c1`, the T/C under setting [16] is 146 % of control.
In the case of `CS(=O)(=O)OCCCl`, the survivor count (dose: 150.0 mg/kg/injection, vehicle: saline) is listed as 0 of 6.
Consider `OC(CBr)C(O)C(O)C(O)CBr` (stereo not drawn), for which the T/C under setting [1] is 134 % of control.
As to `CC[n+]1c(-c2ccccc2)c2cc(N)ccc2c2ccc(N)cc21`, the T/C was 130 % of control under setting [8], 146 % of control under setting [9] and 146 % of control under setting [17].
For the compound `S=P(N1CC1)(N1CC1)N1CC1`, the T/C (dose: 3.0 mg/kg/injection, vehicle: saline) is 142 and 143 % of control. Besides, the survivor count under setting [16] is on record as 6 of 6.
For `CN(C)[C@@H]1C(=O)C(C(N)=O)=C(O)[C@@]2(O)C(=O)C3=C(O)c4c(O)cccc4C[C@H]3C[C@@H]12`, the survivor count (dose: 60.0 mg/kg/injection, vehicle: saline) is listed as 5 of 6.
As to `COc1cc(-c2ccc(Nc3ccccc3C(=O)O)c(OC)c2)ccc1N`, the T/C is 126 % of control under setting [18]; 126 % of control (dose: 40.0 mg/kg/injection, vehicle: saline); 134 % of control [5 of 6 alive] (dose: 80.0 mg/kg/injection, vehicle: saline).
In the case of `CC(=O)N(C)C`, the survivor count runs as follows: (dose: 62.5 mg/kg/injection, vehicle: saline) 6 of 6; (dose: 125.0 mg/kg/injection, vehicle: saline) 6 of 6; (dose: 250.0 mg/kg/injection, vehicle: saline) 5 of 6; (dose: 500.0 mg/kg/injection, vehicle: saline) 6 of 6.
As for `CN(C)/N=N/c1nc[nH]c1C(N)=O`, the T/C under setting [1] is 133 % of control.
Turning to `N#[N+]c1cnc([O-])[nH]c1=O`, the T/C by setting is: under setting [9], 131 [5 of 6 alive] and 146 % of control; under setting [17], 131 % of control; under setting [10], 134 % of control. Also, under setting [18], the survivor count is listed as 0 of 6.
With `S=P(N1CCOCC1)(N1CC1)N1CC1`, the T/C was 100 and 107 % of control under setting [9]; 103 and 110 % of control under setting [17]. Further, the survivor count under setting [9] was 6 of 6; the survivor count under setting [17] was 6 of 6; the survivor count under setting [10] is listed as 6 of 6; the survivor count under setting [18] was 5 of 6 and 6 of 6.
Regarding `CN(C)c1ccc(Nc2c3ccccc3nc3ccccc23)cc1`, the T/C (dose: 120.0 mg/kg/injection, vehicle: saline) is 142 % of control (2×). Besides, the survivor count (dose: 180.0 mg/kg/injection, vehicle: saline) is on record as 5 of 6.
Regarding `Nc1nc(F)nc2c1ncn2C1OC(CO)C(O)C1O` (stereo not drawn), the survivor count under setting [11] was 7 of 7.
As to `O=C(Nc1ccc(C2=NCCN2)cc1)c1cccc(C(=O)Nc2ccc(C3=NCCN3)cc2)c1`, the T/C under setting [15] is 139 % of control. In addition, under setting [4], the survivor count is on record as 0 of 6.
With `CS(=O)(=O)OCCCCOS(C)(=O)=O`, the T/C runs as follows: under setting [19], 96, 100, 102 % of control; under setting [20], 100 and 108 % of control; under setting [6], 100 and 105 % of control; under setting [7], 94 % of control. For the same compound, the survivor count was 5 of 6 under setting [19]; 6 of 6 under setting [20]; 6 of 6 under setting [6]; 5 of 6 and 6 of 6 under setting [7].
